Results from one PubChem assay

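Vaccinia-infected cells with a two-color viral stage reporter; Venus fluorescence read on a plate reader; the cell line is not named here; timing not stated here. The test concentration is not given here. Percent change in Venus reporter signal; lower (more negative) values mean stronger inhibition of that viral stage.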

Values are in %. How 0% and 100% were set is not given here. Common to all entries: measured here: Venus reporter, other viral stage. Part of the compounds only, not a random draw; the main read-out is not listed here.

compound	activity change (Venus) (%)
Cc1noc(C)c1S(=O)(=O)N(C)C[C@H]1OCCCC[C@@H](C)Oc2ccc(NS(=O)(=O)c3cccs3)cc2C(=O)N([C@@H](C)CO)C[C@@H]1C	-28.52
C[C@@H]1CN([C@H](C)CO)C(=O)Cc2cc(NS(=O)(=O)c3ccc(F)cc3)ccc2O[C@H]1CN(C)Cc1ccc(Oc2ccccc2)cc1	-52.22
Cc1ccc(S(=O)(=O)Nc2ccc3c(c2)CC(=O)N([C@H](C)CO)C[C@@H](C)[C@@H](CN(C)Cc2ccc(Oc4ccccc4)cc2)O3)cc1	-44.72
COc1cccc(NC(=O)N(C)C[C@@H]2Oc3cc(C#Cc4ccc(F)cc4)ccc3S(=O)(=O)N([C@@H](C)CO)C[C@@H]2C)c1	-41.34
C[C@@H]1CN([C@@H](C)CO)C(=O)Cc2cc(NC(=O)Nc3ccc(C(F)(F)F)cc3)ccc2O[C@H]1CN(C)Cc1ccncc1	-33.92
CS(=O)(=O)N1CC(=O)N2[C@H](C1)[C@H](c1ccc(C#Cc3ccccc3)cc1)[C@@H]2CO	-56.77
O=C(c1cccc(F)c1)N1CC(=O)N2[C@H](C1)[C@H](c1ccc(C#Cc3ccc(F)cc3)cc1)[C@@H]2CO	-70.57
C[C@@H]1CN([C@@H](C)CO)S(=O)(=O)c2ccc(/C=C/c3ccccc3)cc2O[C@@H]1CN(C)Cc1ccccc1	-68.45
COc1cccc(-c2ccc3c(c2)[C@@H]2[C@@H](CCN2C(=O)NC2CCCC2)[C@H](CO)N3C)c1	-39.32
CO[C@H]1CN(C)C(=O)c2cc(NC(=O)NC3CCCCC3)ccc2OC[C@H](C)N(CCc2ccccc2)C[C@@H]1C	-30.66
O=S(=O)(c1ccc(F)cc1)N1CCCCN2[C@@H](CO)[C@@H](c3ccc(-c4ccccc4F)cc3)[C@@H]2C1	-33.13
C[C@@H]1CCCCO[C@@H](CN(C)Cc2ccc3c(c2)OCO3)[C@H](C)CN([C@@H](C)CO)C(=O)c2cc(NC(=O)c3ccccc3)ccc2O1	-63.6
C[C@H]1CN([C@@H](C)CO)S(=O)(=O)c2ccc(C#CC3CCCCC3)cc2O[C@H]1CN(C)Cc1cccnc1	-68.03
COc1cccc(-c2ccc3c(c2)[C@H]2[C@H](CCN2C(=O)Nc2ccccc2OC)[C@@H](CO)N3C)c1	-49.47
COc1ccc(CN(C)C[C@H]2OCCCC[C@@H](C)Oc3ccc(NS(=O)(=O)c4ccc(C)cc4)cc3C(=O)N([C@H](C)CO)C[C@H]2C)cc1	-47.72
Cc1ccc(S(=O)(=O)Nc2ccc3c(c2)C(=O)N([C@H](C)CO)C[C@@H](C)[C@H](CN(C)Cc2ccc4c(c2)OCO4)OCCCC[C@H](C)O3)cc1	-84.16
C[C@H](CO)N1C[C@H](C)[C@H](CN(C)C(=O)Nc2ccc(C(F)(F)F)cc2)Oc2c(NC(=O)Nc3ccc(F)cc3)cccc2C1=O	-38.39
C[C@@H]1CN([C@H](C)CO)C(=O)c2cc(C#Cc3ccccc3F)cnc2O[C@@H]1CN(C)S(=O)(=O)c1ccccc1	-29.82
COc1ccc(S(=O)(=O)N2CCCCN3[C@@H](CO)[C@@H](c4ccc(C5=CCCC5)cc4)[C@@H]3C2)cc1	-29.52
COc1ccccc1NC(=O)N1CCCCN2[C@H](C1)[C@@H](c1ccc(-c3cccc(C#N)c3)cc1)[C@@H]2CO	-37.93
O=C(Cc1ccccc1)N1CC[C@H]2[C@H](CO)Nc3ccc(-c4cccc(F)c4)cc3[C@H]21	-29.36
O=C(C[C@@H]1CC[C@H]2[C@@H](COC[C@@H](O)CN2Cc2ccc(Oc3ccccc3)cc2)O1)N1CCCCC1	-39.99
C[C@H]1CN([C@@H](C)CO)C(=O)Cc2cc(N(C)C)ccc2O[C@H]1CN(C)S(C)(=O)=O	-34.95
COc1ccc([Si](C)(C)[C@@H]2[C@@H](CCO)O[C@]3(C(=O)N(Cc4ccccc4)c4ccc(N5CCC5=O)cc43)[C@H]2C)cc1	-48.33
O=C(C[C@H]1C[C@@H]2c3cc(NS(=O)(=O)c4ccc(F)cc4)ccc3O[C@@H]2[C@@H](CO)O1)NCc1ccc(-c2ccccc2)cc1	-67.74
COc1ccc(C#Cc2ccc3c(c2)[C@]2(C(=O)N3)[C@H](c3ccc(OCCO)cc3)N3[C@H](c4ccccc4)[C@H](c4ccccc4)OC(=O)[C@H]3[C@@H]2C(N)=O)cc1	-32.82
COc1cccc(S(=O)(=O)Nc2ccc3c(c2)[C@@H]2C[C@H](CC(=O)NCc4ccccc4F)O[C@@H](CO)[C@@H]2O3)c1	-35.85
C[C@@H]1CN([C@H](C)CO)C(=O)c2cc(NC(=O)CCC(F)(F)F)ccc2O[C@@H](C)CCCCO[C@@H]1CN(C)Cc1ccc2c(c1)OCO2	-46.03
C[C@H](CO)N1C[C@H](C)[C@H](CN(C)C(=O)c2ccccc2)OCCCC[C@H](C)Oc2ccc(NS(=O)(=O)c3ccc(F)cc3)cc2C1=O	-31.7
COc1ccccc1-c1ccc2c(c1)O[C@H](CN(C)S(=O)(=O)c1ccc(C)cc1)[C@H](C)CN([C@@H](C)CO)S2(=O)=O	-33.66
CNC[C@H]1Oc2cc(C#CC3CCCCC3)ccc2S(=O)(=O)N([C@@H](C)CO)C[C@H]1C	-66.22
O=C(C1CCC1)N1C[C@@H]2N[C@H](C1)C2c1ccc(-c2ccncc2)cc1 (stereo partly specified)	-48.53
Cc1ccc(S(=O)(=O)N(C)C[C@H]2OCCCC[C@@H](C)Oc3ccc(NS(=O)(=O)c4c(C)noc4C)cc3C(=O)N([C@H](C)CO)C[C@H]2C)cc1	-45.25
C[C@H]1CN([C@@H](C)CO)S(=O)(=O)c2ccc(C3=CCCCC3)cc2O[C@H]1CN(C)Cc1ccncc1	-37.13
CN1CCN(C(=O)c2cc3c(c(-c4cccc(C#CCC5CCCC5)c4)n2)[C@H](CCO)N(S(=O)C(C)(C)C)C3)CC1 (stereo partly specified)	-7.716
Cc1noc(C)c1S(=O)(=O)Nc1ccc2c(c1)C(=O)N([C@@H](C)CO)C[C@H](C)[C@@H](CN(C)Cc1ccc(Cl)c(Cl)c1)OCCCC[C@H](C)O2	-44.47
O=C1CN(S(=O)(=O)Cc2ccccc2)C[C@H]2[C@H](c3ccc(C#Cc4ccc(F)cc4)cc3)[C@@H](CO)N12	-28.89
C[C@H](CO)N1C[C@H](C)[C@H](CN(C)C(=O)Nc2ccnc(N3CCOCC3)c2)OCc2ccccc2-c2c(n(C)c3ccccc23)C1=O	-43.81
C[C@@H]1CN([C@@H](C)CO)S(=O)(=O)c2ccc(C#CC3CCCC3)cc2O[C@@H]1CN(C)Cc1cccnc1	-80.28

From PubChem BioAssay record AID1053133 (Broad Institute, 2014).